Laboratory results taken from paper PMC5844867.
Results are given in words; binding and its absence hold for the method and conditions named. Binding seen in cells or lysates may run through a third protein. Some results given as binding are weak or reduced against the parent protein; the word gives no strength.

Sequences of proteins named here, by UniProt entry; tags and fusion partners are left off. Residues count along the entry.
UniProt Q60631, residues 60-152: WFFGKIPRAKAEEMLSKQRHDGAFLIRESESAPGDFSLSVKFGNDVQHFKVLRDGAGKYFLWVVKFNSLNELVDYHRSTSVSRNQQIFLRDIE
UniProt P15391, residues 20-556: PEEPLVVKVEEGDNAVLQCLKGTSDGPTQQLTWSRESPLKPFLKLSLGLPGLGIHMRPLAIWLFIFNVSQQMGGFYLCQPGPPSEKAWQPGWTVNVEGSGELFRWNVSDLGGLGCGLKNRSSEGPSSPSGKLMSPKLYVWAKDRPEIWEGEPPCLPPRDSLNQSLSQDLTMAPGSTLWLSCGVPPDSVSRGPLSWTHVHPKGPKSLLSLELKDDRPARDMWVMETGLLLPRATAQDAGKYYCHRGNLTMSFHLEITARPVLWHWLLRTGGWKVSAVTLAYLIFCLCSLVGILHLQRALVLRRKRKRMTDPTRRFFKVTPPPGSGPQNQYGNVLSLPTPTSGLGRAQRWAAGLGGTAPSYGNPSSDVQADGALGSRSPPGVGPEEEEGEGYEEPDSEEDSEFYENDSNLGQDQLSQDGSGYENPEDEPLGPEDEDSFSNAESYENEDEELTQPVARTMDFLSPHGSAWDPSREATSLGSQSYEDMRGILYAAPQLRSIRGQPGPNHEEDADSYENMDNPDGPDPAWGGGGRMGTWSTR
UniProt P11912, residues 33-226: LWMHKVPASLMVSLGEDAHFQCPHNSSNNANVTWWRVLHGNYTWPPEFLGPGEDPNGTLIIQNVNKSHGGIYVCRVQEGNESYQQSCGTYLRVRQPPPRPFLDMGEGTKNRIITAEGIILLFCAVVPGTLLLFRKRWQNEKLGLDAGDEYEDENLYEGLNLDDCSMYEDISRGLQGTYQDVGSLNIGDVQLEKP

Biological target: Grb2 SH2 domain fused to GST (mouse) (UniProt Q60631)
Assay: pull-down; 20 µg GST fusion protein bound to glutathione-sepharose; cleared lysates of parental and SLP65-deficient DG75 cells stimulated via the mIgM-BCR for three minutes; immunoblot; only the target purified

Row | Substance | binding
1 | B cell co-receptor CD19 (from UniProt P15391 20-556) | binds
2 | Igα (CD79A) (from UniProt P11912 33-226) (receptor) | binds
